# Some of the results follow. The data scatter; read single values as rough.
# Chains of the proteins cited; added tags and fusions are not shown. Lines headed by an entry give the natural chain unless they say otherwise; changes in a name come on top. Residues count along the entry.
# UniProt Q9Y3A4, 78-101: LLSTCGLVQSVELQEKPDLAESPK
# UniProt P62070: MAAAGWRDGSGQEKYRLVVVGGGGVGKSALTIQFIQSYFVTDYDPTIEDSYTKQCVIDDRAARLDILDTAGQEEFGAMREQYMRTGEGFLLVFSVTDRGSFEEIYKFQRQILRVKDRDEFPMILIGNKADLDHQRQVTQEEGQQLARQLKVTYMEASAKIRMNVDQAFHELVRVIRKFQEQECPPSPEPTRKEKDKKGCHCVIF
# UniProt O75818: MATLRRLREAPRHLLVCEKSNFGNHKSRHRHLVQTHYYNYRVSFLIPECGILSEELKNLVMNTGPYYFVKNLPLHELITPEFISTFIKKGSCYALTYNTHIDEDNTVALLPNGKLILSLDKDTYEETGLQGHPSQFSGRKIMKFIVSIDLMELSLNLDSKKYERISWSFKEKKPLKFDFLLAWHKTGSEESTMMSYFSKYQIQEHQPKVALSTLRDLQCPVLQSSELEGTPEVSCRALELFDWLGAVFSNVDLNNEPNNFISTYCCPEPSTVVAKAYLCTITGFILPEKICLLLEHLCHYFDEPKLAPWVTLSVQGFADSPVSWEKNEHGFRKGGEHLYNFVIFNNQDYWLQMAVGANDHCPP
# Columns and labels:
# [1] = compound: ClCC(=O)N[C@@H]1CCCc2ccccc12; assay: log2 mean competition ratio of IA-DTB cysteine labelling (DMSO/compound) (log2 ratio); higher = stronger cysteine engagement by compound; conditions: treatment time: 4 h, cell line lysate: HEK293T
# Method: (§1)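 IA-DTB competitive cysteine chemoproteomics in HEK293T RIPA lysate. Lysates were treated with compound 29 or 30 at 50 or 200 µM for 4 h, then IA-DTB (500 µM, 1 h), trypsin-digested, NeutrAvidin-enriched and analysed by diaPASEF. Competition ratio = intensity DMSO / intensity compound (n=4 treated, n=64 DMSO); binding: mean log2 CR ≥ 1 and p ≤ 0.05 plus QC filters. Target is the cysteine site.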
# [2] = compound: ClCC(=O)N[C@H]1CCCc2ccccc12; assay: as above; conditions: treatment time: 4 h, cell line lysate: HEK293T
# Method: as §1
Target,log2 mean competition ratio ([1]; 50 µM),log2 mean competition ratio ([1]; 200 µM),log2 mean competition ratio ([2]; 50 µM),log2 mean competition ratio ([2]; 200 µM)
RPS16 C25 (UniProt P62249),0.464,-0.478,0.538,-0.437
RRP7A C82 (UniProt Q9Y3A4),0.167,0.223,0.415,0.186
RRAS2 C55 (UniProt P62070),-0.261,0.0623,0.146,0.177
RPP40 C17 (UniProt O75818),-0.118,-0.109,-0.112,-0.224
